# Reference: publication PMC8719716
# Where a chain is given by its changes, count along the chain named. No constants are given. Whether binding was seen depends on the method and setting. Binding seen in cells or lysates may run through a third protein. For part of these data: Binding can be weak; no strength is given. For part of these data: Sequences can lack the tags named with a protein.
# Columns and labels:
# Test in all cases: co-IP; Xenopus embryos injected with mRNAs at the one-cell stage, harvested at stages 11–12, lysed in TNSG buffer (50 mM Tris-HCl pH 7.4, 150 mM NaCl, 1% NP-40, 10% glycerol) with protease and phosphatase inhibitors; anti-V5, anti-Flag M2 or anti-HA agarose, 6–8 h at 4°C; reciprocal
# [1] = target: T1, X. laevis CEP97-HA (X. laevis) (UniProt Q6GPJ8)
# T1 sequence: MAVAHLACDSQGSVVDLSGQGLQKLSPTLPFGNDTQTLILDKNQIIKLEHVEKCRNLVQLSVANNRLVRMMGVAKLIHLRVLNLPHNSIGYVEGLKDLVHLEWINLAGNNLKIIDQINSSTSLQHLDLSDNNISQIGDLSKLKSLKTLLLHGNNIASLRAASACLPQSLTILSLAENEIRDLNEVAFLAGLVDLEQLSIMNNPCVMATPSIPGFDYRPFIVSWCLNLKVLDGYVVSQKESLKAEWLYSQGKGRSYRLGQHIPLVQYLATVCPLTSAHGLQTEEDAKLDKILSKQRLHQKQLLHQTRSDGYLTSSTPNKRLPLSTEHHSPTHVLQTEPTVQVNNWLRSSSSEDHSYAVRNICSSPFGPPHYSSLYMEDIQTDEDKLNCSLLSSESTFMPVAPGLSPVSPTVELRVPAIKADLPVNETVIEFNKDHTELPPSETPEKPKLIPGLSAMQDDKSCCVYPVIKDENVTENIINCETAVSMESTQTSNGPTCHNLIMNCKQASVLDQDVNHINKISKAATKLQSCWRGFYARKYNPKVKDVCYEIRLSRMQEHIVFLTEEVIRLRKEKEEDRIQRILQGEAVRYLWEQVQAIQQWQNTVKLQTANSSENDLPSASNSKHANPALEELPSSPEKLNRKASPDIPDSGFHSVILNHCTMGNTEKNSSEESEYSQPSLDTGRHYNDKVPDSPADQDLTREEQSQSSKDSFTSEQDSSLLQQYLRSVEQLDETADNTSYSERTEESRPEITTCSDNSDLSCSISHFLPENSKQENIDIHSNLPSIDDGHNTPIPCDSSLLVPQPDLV
# [2] = target: T2, X. laevis CEP97 WT, exogenous, tag not named for the experiment (X. laevis) (UniProt Q6GPJ8)
# T2 sequence: T1 sequence
# [3] = target: T3, X. laevis CEP97 phospho-null mutant (SA; S634A, S643A, S649A, and S653A) (X. laevis) (UniProt Q6GPJ8)
# T3 sequence: T1 sequence with S634A, S643A, S649A, S653A
Substance,binding [1],binding [2],binding [3]
X. laevis Dyrk1a ΔC mutant (domain or fragment),binds,,
X. laevis Plk1 PB domains alone (PB) (domain or fragment),,binds,no binding
